For three molecules, binding results are on record in publication PMC11334570.

Chains of the proteins cited; added tags and fusions are not shown.
UniProt O00425: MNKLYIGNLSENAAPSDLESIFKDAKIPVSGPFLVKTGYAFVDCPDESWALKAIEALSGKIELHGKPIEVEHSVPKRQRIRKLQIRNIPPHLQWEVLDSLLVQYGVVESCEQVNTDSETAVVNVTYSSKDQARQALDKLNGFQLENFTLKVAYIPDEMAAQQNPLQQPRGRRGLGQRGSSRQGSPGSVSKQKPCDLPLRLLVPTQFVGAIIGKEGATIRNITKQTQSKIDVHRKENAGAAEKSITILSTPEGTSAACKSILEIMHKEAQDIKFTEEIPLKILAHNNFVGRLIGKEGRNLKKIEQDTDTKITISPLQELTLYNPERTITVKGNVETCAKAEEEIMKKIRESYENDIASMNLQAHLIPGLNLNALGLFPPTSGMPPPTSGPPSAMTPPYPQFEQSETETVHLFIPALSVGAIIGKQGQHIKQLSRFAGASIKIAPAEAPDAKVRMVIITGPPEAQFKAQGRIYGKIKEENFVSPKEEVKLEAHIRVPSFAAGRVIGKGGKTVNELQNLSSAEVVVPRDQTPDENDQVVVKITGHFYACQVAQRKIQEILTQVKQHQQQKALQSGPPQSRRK

Assay [1] deals with T1, Ubiquitin-specific protease 15 (USP15), endogenous (human (endogenous in SGC7901)) (UniProt Q9Y4E8).
T1 sequence: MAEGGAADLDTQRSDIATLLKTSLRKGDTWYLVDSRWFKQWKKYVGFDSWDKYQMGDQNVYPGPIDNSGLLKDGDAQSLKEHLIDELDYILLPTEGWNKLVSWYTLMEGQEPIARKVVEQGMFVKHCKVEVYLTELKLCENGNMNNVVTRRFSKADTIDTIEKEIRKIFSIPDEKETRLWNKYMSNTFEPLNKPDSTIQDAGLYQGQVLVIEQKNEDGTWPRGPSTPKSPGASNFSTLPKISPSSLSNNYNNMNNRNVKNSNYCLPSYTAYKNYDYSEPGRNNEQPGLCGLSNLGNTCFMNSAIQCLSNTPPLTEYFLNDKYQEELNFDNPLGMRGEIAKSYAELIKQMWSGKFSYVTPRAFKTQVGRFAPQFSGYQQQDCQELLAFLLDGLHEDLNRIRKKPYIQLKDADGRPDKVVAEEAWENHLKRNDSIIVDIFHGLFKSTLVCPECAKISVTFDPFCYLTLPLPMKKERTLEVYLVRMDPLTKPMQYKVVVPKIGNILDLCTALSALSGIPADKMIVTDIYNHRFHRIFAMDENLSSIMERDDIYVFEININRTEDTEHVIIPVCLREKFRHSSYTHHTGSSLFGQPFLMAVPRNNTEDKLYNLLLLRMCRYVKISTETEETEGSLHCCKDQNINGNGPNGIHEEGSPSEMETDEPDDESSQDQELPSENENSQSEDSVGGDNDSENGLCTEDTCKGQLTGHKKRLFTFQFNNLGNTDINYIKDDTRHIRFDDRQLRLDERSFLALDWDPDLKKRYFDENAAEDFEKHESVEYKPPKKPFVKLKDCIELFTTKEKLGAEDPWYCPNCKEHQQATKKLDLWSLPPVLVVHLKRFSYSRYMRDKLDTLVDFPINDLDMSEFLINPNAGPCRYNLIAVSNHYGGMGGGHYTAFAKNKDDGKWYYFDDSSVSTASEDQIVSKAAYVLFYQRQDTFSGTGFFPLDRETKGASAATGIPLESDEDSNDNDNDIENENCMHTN
In words: co-IP; SGC7901 cell lysates immunoprecipitated with anti-USP15 antibody, IgG as negative control; western blot for HKDC1, IGF2BP3 and USP15.

The target in assay [2] is T2, Flag-tagged USP15 (pcDNA3.1-USP15-Flag) (human) (UniProt Q9Y4E8).
T2 sequence: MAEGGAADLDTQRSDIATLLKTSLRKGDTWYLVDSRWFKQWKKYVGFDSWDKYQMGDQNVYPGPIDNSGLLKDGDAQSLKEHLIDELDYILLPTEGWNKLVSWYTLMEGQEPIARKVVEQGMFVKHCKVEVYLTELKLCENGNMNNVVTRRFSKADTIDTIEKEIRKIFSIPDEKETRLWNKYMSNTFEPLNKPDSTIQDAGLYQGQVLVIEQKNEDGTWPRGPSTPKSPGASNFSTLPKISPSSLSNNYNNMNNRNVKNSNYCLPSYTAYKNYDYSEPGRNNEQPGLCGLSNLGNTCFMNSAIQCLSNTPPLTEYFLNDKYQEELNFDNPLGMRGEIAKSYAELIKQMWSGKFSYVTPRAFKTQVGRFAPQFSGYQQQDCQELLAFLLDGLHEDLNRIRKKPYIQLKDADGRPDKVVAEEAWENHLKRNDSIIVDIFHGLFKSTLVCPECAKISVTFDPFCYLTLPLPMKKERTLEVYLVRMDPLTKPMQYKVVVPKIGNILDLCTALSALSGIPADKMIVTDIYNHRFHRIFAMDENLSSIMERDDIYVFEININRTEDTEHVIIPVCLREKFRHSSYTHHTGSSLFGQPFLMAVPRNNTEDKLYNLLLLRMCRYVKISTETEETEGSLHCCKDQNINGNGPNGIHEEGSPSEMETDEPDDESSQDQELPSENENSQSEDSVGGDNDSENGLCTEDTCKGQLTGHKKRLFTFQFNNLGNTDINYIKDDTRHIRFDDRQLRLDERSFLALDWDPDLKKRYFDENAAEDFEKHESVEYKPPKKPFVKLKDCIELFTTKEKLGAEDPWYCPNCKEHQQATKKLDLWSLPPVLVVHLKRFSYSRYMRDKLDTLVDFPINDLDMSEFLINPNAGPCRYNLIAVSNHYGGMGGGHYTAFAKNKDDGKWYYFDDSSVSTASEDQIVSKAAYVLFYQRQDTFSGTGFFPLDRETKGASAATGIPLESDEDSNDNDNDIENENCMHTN
In words: co-IP; lysates of N87 Flag-USP15 cells or Flag-EV cells immunoprecipitated with anti-Flag; western blot for HKDC1, IGF2BP3 and USP15. Background: In western blotting, separated proteins are transferred to a membrane and probed.

Assay [3] deals with T3, Hexokinase domain containing 1 (HKDC1), endogenous (human (endogenous in SGC7901 and NCI-N87)) (UniProt Q2TB90).
T3 sequence: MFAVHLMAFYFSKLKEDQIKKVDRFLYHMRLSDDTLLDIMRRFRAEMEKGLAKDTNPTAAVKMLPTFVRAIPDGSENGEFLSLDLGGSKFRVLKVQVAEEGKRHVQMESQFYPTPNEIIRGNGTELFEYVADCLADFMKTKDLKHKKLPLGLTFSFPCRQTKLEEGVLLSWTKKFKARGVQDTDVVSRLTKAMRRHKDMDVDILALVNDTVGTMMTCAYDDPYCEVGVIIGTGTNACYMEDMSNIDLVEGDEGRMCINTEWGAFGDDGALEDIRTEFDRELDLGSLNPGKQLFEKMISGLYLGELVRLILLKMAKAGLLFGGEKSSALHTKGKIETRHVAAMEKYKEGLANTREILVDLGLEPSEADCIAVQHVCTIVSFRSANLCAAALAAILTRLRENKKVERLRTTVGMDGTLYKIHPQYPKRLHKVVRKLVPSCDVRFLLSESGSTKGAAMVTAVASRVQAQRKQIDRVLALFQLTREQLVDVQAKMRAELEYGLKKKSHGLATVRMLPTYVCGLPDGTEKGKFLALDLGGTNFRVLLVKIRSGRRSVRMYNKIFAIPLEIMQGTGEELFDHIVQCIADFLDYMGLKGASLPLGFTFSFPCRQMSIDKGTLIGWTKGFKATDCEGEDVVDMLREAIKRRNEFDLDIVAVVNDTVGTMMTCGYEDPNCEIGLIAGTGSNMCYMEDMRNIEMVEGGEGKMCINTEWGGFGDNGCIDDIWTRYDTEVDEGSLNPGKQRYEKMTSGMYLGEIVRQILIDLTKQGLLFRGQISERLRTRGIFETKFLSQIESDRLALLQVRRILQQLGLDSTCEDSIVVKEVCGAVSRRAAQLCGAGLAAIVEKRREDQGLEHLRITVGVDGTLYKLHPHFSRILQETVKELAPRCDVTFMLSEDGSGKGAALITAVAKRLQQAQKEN
In words: co-IP; SGC7901 cell lysates immunoprecipitated with anti-HKDC1 or anti-IGF2BP3 antibody, IgG as negative control; western blot for HKDC1, IGF2BP3 and USP15.

The target of assay [4] is Insulin like growth factor 2 mRNA binding protein 3 (IGF2BP3), endogenous (human (endogenous in SGC7901 and NCI-N87)) (UniProt O00425). Described as above.

These are yes or no findings as the source states them, for the method shown. In cells and extracts the contact can be indirect. Some entries that bind do so weakly or less than the wild type. For part of these data: Sequences can lack the tags named with a protein.

Regarding “Insulin like growth factor 2 mRNA binding protein 3 (IGF2BP3), endogenous (from UniProt O00425 1-579)”, the binding entry in assay [1] and in assay [2] was “binds” throughout.

B1: Hexokinase domain containing 1 (HKDC1), endogenous (enzyme, UniProt Q2TB90 1-917)
chain: MFAVHLMAFYFSKLKEDQIKKVDRFLYHMRLSDDTLLDIMRRFRAEMEKGLAKDTNPTAAVKMLPTFVRAIPDGSENGEFLSLDLGGSKFRVLKVQVAEEGKRHVQMESQFYPTPNEIIRGNGTELFEYVADCLADFMKTKDLKHKKLPLGLTFSFPCRQTKLEEGVLLSWTKKFKARGVQDTDVVSRLTKAMRRHKDMDVDILALVNDTVGTMMTCAYDDPYCEVGVIIGTGTNACYMEDMSNIDLVEGDEGRMCINTEWGAFGDDGALEDIRTEFDRELDLGSLNPGKQLFEKMISGLYLGELVRLILLKMAKAGLLFGGEKSSALHTKGKIETRHVAAMEKYKEGLANTREILVDLGLEPSEADCIAVQHVCTIVSFRSANLCAAALAAILTRLRENKKVERLRTTVGMDGTLYKIHPQYPKRLHKVVRKLVPSCDVRFLLSESGSTKGAAMVTAVASRVQAQRKQIDRVLALFQLTREQLVDVQAKMRAELEYGLKKKSHGLATVRMLPTYVCGLPDGTEKGKFLALDLGGTNFRVLLVKIRSGRRSVRMYNKIFAIPLEIMQGTGEELFDHIVQCIADFLDYMGLKGASLPLGFTFSFPCRQMSIDKGTLIGWTKGFKATDCEGEDVVDMLREAIKRRNEFDLDIVAVVNDTVGTMMTCGYEDPNCEIGLIAGTGSNMCYMEDMRNIEMVEGGEGKMCINTEWGGFGDNGCIDDIWTRYDTEVDEGSLNPGKQRYEKMTSGMYLGEIVRQILIDLTKQGLLFRGQISERLRTRGIFETKFLSQIESDRLALLQVRRILQQLGLDSTCEDSIVVKEVCGAVSRRAAQLCGAGLAAIVEKRREDQGLEHLRITVGVDGTLYKLHPHFSRILQETVKELAPRCDVTFMLSEDGSGKGAALITAVAKRLQQAQKEN
B1: the binding entry in assay [1] and in assay [2] was “binds” each time.

B2: Ubiquitin-specific protease 15 (USP15), endogenous (enzyme, UniProt Q9Y4E8 1-981)
chain: MAEGGAADLDTQRSDIATLLKTSLRKGDTWYLVDSRWFKQWKKYVGFDSWDKYQMGDQNVYPGPIDNSGLLKDGDAQSLKEHLIDELDYILLPTEGWNKLVSWYTLMEGQEPIARKVVEQGMFVKHCKVEVYLTELKLCENGNMNNVVTRRFSKADTIDTIEKEIRKIFSIPDEKETRLWNKYMSNTFEPLNKPDSTIQDAGLYQGQVLVIEQKNEDGTWPRGPSTPKSPGASNFSTLPKISPSSLSNNYNNMNNRNVKNSNYCLPSYTAYKNYDYSEPGRNNEQPGLCGLSNLGNTCFMNSAIQCLSNTPPLTEYFLNDKYQEELNFDNPLGMRGEIAKSYAELIKQMWSGKFSYVTPRAFKTQVGRFAPQFSGYQQQDCQELLAFLLDGLHEDLNRIRKKPYIQLKDADGRPDKVVAEEAWENHLKRNDSIIVDIFHGLFKSTLVCPECAKISVTFDPFCYLTLPLPMKKERTLEVYLVRMDPLTKPMQYKVVVPKIGNILDLCTALSALSGIPADKMIVTDIYNHRFHRIFAMDENLSSIMERDDIYVFEININRTEDTEHVIIPVCLREKFRHSSYTHHTGSSLFGQPFLMAVPRNNTEDKLYNLLLLRMCRYVKISTETEETEGSLHCCKDQNINGNGPNGIHEEGSPSEMETDEPDDESSQDQELPSENENSQSEDSVGGDNDSENGLCTEDTCKGQLTGHKKRLFTFQFNNLGNTDINYIKDDTRHIRFDDRQLRLDERSFLALDWDPDLKKRYFDENAAEDFEKHESVEYKPPKKPFVKLKDCIELFTTKEKLGAEDPWYCPNCKEHQQATKKLDLWSLPPVLVVHLKRFSYSRYMRDKLDTLVDFPINDLDMSEFLINPNAGPCRYNLIAVSNHYGGMGGGHYTAFAKNKDDGKWYYFDDSSVSTASEDQIVSKAAYVLFYQRQDTFSGTGFFPLDRETKGASAATGIPLESDEDSNDNDNDIENENCMHTN
As for B2, the binding result in assay [3] and in assay [4] was “binds” in each case.
